Data from PubChem BioAssay AID504444 (National Center for Advancing Translational Sciences (NCATS), 2011).
The whole screen tested about 360,000 compounds, of which about 7,500 (2.1%) were called active. Inconclusive means that the source gave no clear call. Such entries were picked first, then a sample of the others. Calls follow the shape of the dose curve; as a rule, active = well fitted inhibition curve with a large enough effect; inconclusive = small, poorly fitted or top-dose-only effect, or effect the other way; inactive = flat fitted curve, though single readings scatter. A potency beside an inconclusive call is a rough fit, not a confirmed value.

Assay: Nrf2 qHTS screen for inhibitors; also: nearly all actives have a fitted effect of over 60% in size
Conditions: A549 ARE-Fluc reporter, luciferase luminescence, 18-24 h; activity change, negative = inhibition: at 46 µM (top of the series)
Outline: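 Nrf2 activity is the BugLite luminescence, read 15 min after reagent at room temperature, following CellTiter-Fluor cytotoxicity readout (30 min, 37C). Compound titrations were applied for 18-24 h to 5000 A549 ARE_Fluc cells/well in 5% FBS OPTI-MEM.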
% is scaled to controls: 0 for no effect and ±100 for the full control effect; potency is read from the fitted curve at half-maximal effect.

SMILES	Potency	activity change, negative = inhibition
CN1/C(=C/c2cccc[n+]2CCO)Sc2ccccc21	inconclusive: 18.4 µM [falling, partial curve]	
Cc1cccc(Cn2cc(S(=O)(=O)c3ccccc3)c(=O)c3cc(F)c(N4CCOCC4)cc32)c1	inactive	
Cc1cccc(C)c1NC(=O)C1CCCN1S(=O)(=O)c1ccccc1 (centres undefined)	inconclusive: 4.61 µM [falling, partial curve, poor fit]	
Cc1ccsc1/C=N/NC(=O)c1ccccn1	inconclusive: 1.46 µM [activator, partial curve]	
CCOc1ccc(CCNC(=O)c2ccc(-n3c(C)cc4c3CCCC4)cc2)cc1OCC	inactive	
Clc1ccc(Cc2ccc(SCc3ccccc3)nn2)c(Cl)c1	inconclusive: 29.1 µM [falling, single point]	
CC1(C)SC(=S)N(/N=C/c2ccccc2)C1N(O)C(=O)Nc1ccc([N+](=O)[O-])cc1 (centres undefined)	inconclusive: 16.4 µM [falling, partial curve]	
O=C(N/N=C/c1ccc([N+](=O)[O-])o1)C1CC1	inconclusive: 23.1 µM [falling, single point]	
CC(C)OC(=O)c1ccc(NC(=O)C2C3CC4OC(=O)C2C4C3)cc1 (centres undefined)	inconclusive: 2.59 µM [activator, full curve, poor fit]	
CCOC(=O)CNC(=O)c1cc2c(=O)oc3ccccc3c2s1		inactive: 4.56% [at 9.27 µM]
Nc1ncn(C(=S)Nc2ccccc2)n1	inactive	
O=C(CNCc1ccccc1)NC1C2CC3CC(C2)CC1C3 (centres undefined)	inconclusive: 23.1 µM [activator, single point]	
O=C(Nc1ccc(S(=O)(=O)N2CCCCC2)cc1)c1ccc(CN2CCc3ccccc3C2)cc1	active: 0.326 µM	
Cc1nc2ccccc2c(=O)n1NC(=O)c1ccccc1Cl	inconclusive: 5.8 µM [activator, full curve]	
Cc1ccc(NC(=O)CN2CCC(Cc3ccccc3)CC2)cc1S(=O)(=O)N(C)C	inactive	
Cc1cc(F)ccc1S(=O)(=O)N(C(=O)c1ccncc1)c1ccc(OC(=O)c2ccncc2)cc1	inactive	
O=C(Nc1ccc(Cl)cc1)c1nc[nH]c1C(=O)NCCN(CCNC(=O)c1[nH]cnc1C(=O)Nc1ccc(Cl)cc1)CCNC(=O)c1[nH]cnc1C(=O)Nc1ccc(Cl)cc1	inconclusive: 29.1 µM [falling, single point]	
CC(SCc1ccccc1)C(=O)Nc1ccccc1Br (centres undefined)	inconclusive: 18.4 µM [activator, partial curve]	
C/C(=C\c1ccccc1)CN1CCN(c2cccc(Cl)c2)CC1	inactive	

Taken from above.
Potency with Cc1ccc(NC(=O)CN2CCC(Cc3ccccc3)CC2)cc1S(=O)(=O)N(C)C is entered as inactive
Potency with CN1/C(=C/c2cccc[n+]2CCO)Sc2ccccc21 is entered as inconclusive: 18.4 µM [falling, partial curve]
